Source: ChEMBL document CHEMBL4303122, “Identification of potential treatments for COVID-19 through artificial intelligence-enabled phenomic analysis of human cells infected with SARS-CoV-2” (2020)
The full ranking holds about 1,600 compounds; the median of “Hit score” is about 0.13, and the highest 2% start at about 0.46. This is one part of the list.

tested on: SARS-CoV-2; assay: Antiviral activity against SARS-CoV-2 (USA-WA1/2020 strain) measured by imaging in HRCE cells at MOI 0.4 after 96 hrs (reported as hit score from 0-1 for on-disease vs off-disease activity: scores >0.6 considered hits); type: functional, Homo sapiens

Question: `O=C(O)CCCN1CCC(O[C@@H](c2ccc(Cl)cc2)c2ccccn2)CC1` [BEPOTASTINE] was tested. Which Hit score did it give?
Answer: 0.1376

Question: With `C[C@@H](O)[C@H]1C(=O)N2C(C(=O)O)=C([C@H]3CCCO3)S[C@H]12` [FAROPENEM] as the compound, how does the Hit score read?
Answer: 0.1823

Question: `COc1ccc(-c2ccc3cc(C(=O)O)ccc3c2)cc1C12CC3CC(CC(C3)C1)C2` was tested. Which Hit score did it give?
Answer: 0.1742

Question: How did the Hit score turn out when `CCCCc1oc2ccccc2c1C(=O)c1cc(I)c(OCCN(CC)CC)c(I)c1` [AMIODARONE] was run?
Answer: 0.1232

Question: For `CC(C)n1nccc1-c1ncccc1COc1cccc(O)c1C=O` [VOXELOTOR], which Hit score is on record?
Answer: 0.1638

Question: For `O=S(=O)([O-])CCS.[Na+]` [MESNA], which Hit score is on record?
Answer: 0.149

Question: Which Hit score does the source give for `CN1C(=O)N(C)C2C1N(C)C(=O)N2C` (stereo not drawn) [MEBICAR] here?
Answer: 0.1618

Question: Which Hit score does the source give for `N#CC1(c2ccc(NC(=O)c3cccnc3NCc3ccncc3)cc2)CCCC1` [RIVOCERANIB] here?
Answer: 0.08782

Question: For `OC[C@@H](O)CN1CCN(c2ccccc2)CC1` [LEVODROPROPIZINE], which Hit score is on record?
Answer: 0.1177

Question: Which Hit score does the source give for `COc1ccc(CCO[C@@H]2CCCC[C@H]2N2CC[C@@H](O)C2)cc1OC` [VERNAKALANT] here?
Answer: 0.04877

Question: With `Cc1cccc(Cc2c[nH]cn2)c1C` [DETOMIDINE] as the compound, how does the Hit score read?
Answer: 0.2278

Question: With `COc1ccc(CNc2nc(N3CCC[C@H]3CO)ncc2C(=O)NCc2ncccn2)cc1Cl` as the compound, how does the Hit score read?
Answer: 0.0319

Question: For `CC(C)(C)CC(C)(C)c1ccc(OCCOCC[N+](C)(C)Cc2ccccc2)cc1` [BENZETHONIUM], which Hit score is on record?
Answer: 0.03086

Question: With `Cn1nnc2c(C(N)=O)ncn2c1=O` [TEMOZOLOMIDE] as the compound, how does the Hit score read?
Answer: 0.2002

Question: For `CC(C)C(=O)c1c(C(C)C)nn2ccccc12` [IBUDILAST], which Hit score is on record?
Answer: 0.1885

Question: How did the Hit score turn out when `CC(CN(C)C)CN1c2ccccc2CCc2ccccc21` (stereo not drawn) [TRIMIPRAMINE] was run?
Answer: 0.08026

Question: Which Hit score does the source give for `C#C[C@]1(O)CC[C@H]2[C@@H]3CCC4=CC(=O)CCC4=C3C=C[C@@]21CC` [GESTRINONE] here?
Answer: 0.3099

Question: With `OC(CCN1CCCC1)(c1ccccc1)C1CCCCC1` (stereo not drawn) [PROCYCLIDINE] as the compound, how does the Hit score read?
Answer: 0.2175

Question: `Cn1c(=O)c2c(ncn2CCOC(=O)C(C)(C)Oc2ccc(Cl)cc2)n(C)c1=O` [THEOFIBRATE] was tested. Which Hit score did it give?
Answer: 0.04373

Question: `CC(C)NCC(O)COc1cccc2[nH]ccc12` (stereo not drawn) [PINDOLOL] was tested. Which Hit score did it give?
Answer: 0.3758

Question: With `CCCCCCCCO` [OCTANOL] as the compound, how does the Hit score read?
Answer: -0.003184

Question: How did the Hit score turn out when `CCN(CC)C(=O)N1CCN(C)CC1` [DIETHYLCARBAMAZINE] was run?
Answer: 0.06731

Question: `C=CC[N+]1([C@H]2C[C@H]3[C@@H]4CC[C@H]5C[C@H](O)[C@@H](N6CCOCC6)C[C@]5(C)[C@H]4CC[C@]3(C)[C@H]2OC(C)=O)CCCC1` [ROCURONIUM] was tested. Which Hit score did it give?
Answer: 0.1086

Question: How did the Hit score turn out when `COc1ccc(-n2nc(CCC(=O)N(C)O)cc2-c2ccc(Cl)cc2)cc1` [TEPOXALIN] was run?
Answer: 0.1984

Question: How did the Hit score turn out when `CCCOC(C(=O)OC1CCN(C)CC1)(c1ccccc1)c1ccccc1.Cl` was run?
Answer: 0.3138

Question: `CC(CCc1ccc(O)cc1)NCC(O)c1ccc(O)cc1` (stereo not drawn) [RACTOPAMINE] was tested. Which Hit score did it give?
Answer: -0.0741

Question: Which Hit score does the source give for `CCN(CCCc1ccccc1)CCCc1ccccc1` [ALVERINE] here?
Answer: 0.3515

Question: `CCCCC(CC)COC(=O)c1ccccc1O` (stereo not drawn) [OCTISALATE] was tested. Which Hit score did it give?
Answer: 0.1384

Question: `CCc1cc(/C(C)=N/OCc2ccc(C3CCCCC3)c(C(F)(F)F)c2)ccc1CN1CC(C(=O)O)C1` [SIPONIMOD] was tested. Which Hit score did it give?
Answer: -0.1293

Question: `NC(=O)NO` [HYDROXYUREA] was tested. Which Hit score did it give?
Answer: 0.237

Question: Which Hit score does the source give for `CO/N=C1\CN(c2nc3c(cc2F)c(=O)c(C(=O)O)cn3C2CC2)CC1CN` (stereo not drawn) [GEMIFLOXACIN] here?
Answer: 0.07253

Question: Which Hit score does the source give for `Cc1onc(-c2ccccc2Cl)c1C(=O)N[C@@H]1C(=O)N2[C@@H]1SC(C)(C)[C@@H]2C(=O)O` [CLOXACILLIN] here?
Answer: 0.1888

Question: With `CCC(=O)NC[C@@H]1C[C@H]1c1cccc2c1CCO2` [TASIMELTEON] as the compound, how does the Hit score read?
Answer: 0.1536

Question: With `Clc1ccc(COC(Cn2ccnc2)c2ccc(Cl)cc2Cl)cc1` (stereo not drawn) [ECONAZOLE] as the compound, how does the Hit score read?
Answer: 0.2282

Question: How did the Hit score turn out when `COc1cc2c(cc1OC)[C@@H]1Cc3ccc(OC)c(OC)c3CN1CC2` [TETRAHYDROPALMATINE] was run?
Answer: 0.0185

Question: `C=C1/C(=C\C=C2/CCC[C@]3(C)[C@@H]([C@H](C)OCCC(C)(C)O)CC[C@@H]23)C[C@@H](O)C[C@@H]1O` [MAXACALCITOL] was tested. Which Hit score did it give?
Answer: -0.1282

Question: How did the Hit score turn out when `CO[C@H]1C[C@H](O[C@H]2[C@H](C)O[C@@H](O[C@@H]3/C(C)=C/C[C@@H]4C[C@@H](C[C@]5(C=C[C@H](C)[C@@H](C6CCCCC6)O5)O4)OC(=O)[C@@H]4C=C(C)[C@@H](O)[C@H]5OC/C(=C\C=C\[C@@H]3C)[C@]54O)C[C@@H]2OC)O[C@@H](C)[C@@H]1O` [DORAMECTIN] was run?
Answer: 0.1058

Question: Which Hit score does the source give for `COc1ccc2nc3cc(Cl)ccc3c(Nc3cc(CN4CCCC4)c(O)c(CN4CCCC4)c3)c2n1` [PYRONARIDINE] here?
Answer: 0.01775

Question: Which Hit score does the source give for `Nc1nc(=O)c2c([nH]1)NCC(CNc1ccc(C(=O)N[C@@H](CCC(=O)O)C(=O)O)cc1)N2C=O` (stereo partly drawn) [LEUCOVORIN] here?
Answer: 0.1373

Question: `Cc1ccc(O)c([C@H](CCN(C(C)C)C(C)C)c2ccccc2)c1` [TOLTERODINE] was tested. Which Hit score did it give?
Answer: 0.1793

Question: How did the Hit score turn out when `C=CCc1ccccc1OCC(O)CNC(C)C` (stereo not drawn) [ALPRENOLOL] was run?
Answer: 0.3773

Question: `NC[C@H]1CC[C@H](C(=O)O)CC1` [TRANEXAMIC ACID] was tested. Which Hit score did it give?
Answer: 0.2997

Question: How did the Hit score turn out when `CC(=O)OC(C)C[N+](C)(C)C` (stereo not drawn) [METHACHOLINE] was run?
Answer: 0.1317

Question: Which Hit score does the source give for `O=C(O)c1cc(=O)c2c(OCC(O)COc3cccc4oc(C(=O)O)cc(=O)c34)cccc2o1` [CROMOLYN] here?
Answer: 0.1049

Question: Which Hit score does the source give for `C[C@H](CCC(=O)O)[C@H]1CC[C@H]2[C@@H]3[C@@H](O)C[C@@H]4C[C@H](O)CC[C@]4(C)[C@H]3CC[C@]12C` [URSODIOL] here?
Answer: 0.2784

Question: `CC(=O)c1ccc2c(c1)N(CCCN1CCN(CCO)CC1)c1ccccc1S2` [ACETOPHENAZINE] was tested. Which Hit score did it give?
Answer: 0.1549

Question: How did the Hit score turn out when `O=C1NC(c2ccccc2)(c2ccccc2)C(=O)N1COP(=O)(O)O` [FOSPHENYTOIN] was run?
Answer: -0.01075

Question: `C=C1/C(=C\C=C2/CCC[C@]3(C)[C@@H]([C@H](C)/C=C/[C@@H](O)C4CC4)CC[C@@H]23)C[C@@H](O)C[C@@H]1O` [CALCIPOTRIENE] was tested. Which Hit score did it give?
Answer: 0.6212

Question: For `CN(C)[C@@H]1C(O)=C(C(N)=O)C(=O)[C@@]2(O)C(O)=C3C(=O)c4c(O)c(NC(=O)CN5CCCC5)cc(F)c4C[C@H]3C[C@@H]12.Cl.Cl` [ERAVACYCLINE DIHYDROCHLORIDE], which Hit score is on record?
Answer: 0.2526

Question: For `CCOc1ccc(Cc2cc([C@@H]3O[C@H](CO)[C@@H](O)[C@H](O)[C@H]3O)ccc2Cl)cc1` [DAPAGLIFLOZIN], which Hit score is on record?
Answer: 0.2268

Question: With `CCCCCCC(=O)O[C@H]1CC[C@H]2[C@@H]3CCC4=CC(=O)CC[C@]4(C)[C@H]3CC[C@]12C` [TESTOSTERONE ENANTHATE] as the compound, how does the Hit score read?
Answer: 0.1237

Question: `O=C(CN1CCN(Cc2ccc3c(c2)OCO3)CC1)N1c2ccccc2Sc2ccccc21` [FENOVERINE] was tested. Which Hit score did it give?
Answer: 0.06568

Question: Which Hit score does the source give for `CCN1CCC[C@H]1CNC(=O)c1cc(S(N)(=O)=O)ccc1OC` [LEVOSULPIRIDE] here?
Answer: 0.1209

Question: `CCOc1nc2cccc(C(=O)OC(C)OC(=O)OC3CCCCC3)c2n1Cc1ccc(-c2ccccc2-c2nn[nH]n2)cc1` (stereo not drawn) [CANDESARTAN CILEXETIL] was tested. Which Hit score did it give?
Answer: 0.1602

Question: With `C[C@H]1C[C@H]2[C@@H]3CCC4=CC(=O)C=C[C@]4(C)[C@@]3(Cl)[C@@H](O)C[C@]2(C)[C@@]1(O)C(=O)CO` [BECLOMETHASONE] as the compound, how does the Hit score read?
Answer: 0.1286

Question: `CCCNS(=O)(=O)Nc1ncnc(OCCOc2ncc(Br)cn2)c1-c1ccc(Br)cc1` was tested. Which Hit score did it give?
Answer: 0.09467

Question: Which Hit score does the source give for `CCOC(=O)CSCCC1NC(C(=O)O)CS1` (stereo not drawn) [LETOSTEINE] here?
Answer: 0.08225

Question: `CC1=C(C(=O)OCCN(Cc2ccccc2)c2ccccc2)C(c2cccc([N+](=O)[O-])c2)C(P2(=O)OCC(C)(C)CO2)=C(C)N1` (stereo not drawn) [EFONIDIPINE] was tested. Which Hit score did it give?
Answer: 0.1344

Question: With `C[C@@H]1C[C@H]2[C@@H]3C[C@H](F)C4=CC(=O)C=C[C@]4(C)[C@@]3(F)[C@@H](O)C[C@]2(C)[C@@]1(O)C(=O)COC(=O)C(C)(C)C` [FLUMETHASONE PIVALATE] as the compound, how does the Hit score read?
Answer: 0.4081

Question: With `CCOC(=O)c1ccc(C#Cc2ccc3c(c2)C(C)(C)CCS3)nc1` [TAZAROTENE] as the compound, how does the Hit score read?
Answer: 0.2393

Question: With `CCC(C)(C)c1ccc(CC(C)CN2C[C@@H](C)O[C@@H](C)C2)cc1` (stereo partly drawn) [AMOROLFINE] as the compound, how does the Hit score read?
Answer: 0.3007

Question: `O=c1[nH]c(=O)n([C@H]2C[C@H](O)[C@@H](CO)O2)cc1/C=C/Br` [BRIVUDINE] was tested. Which Hit score did it give?
Answer: 0.05949

Question: With `NC(=O)c1cccnc1` [NIACINAMIDE] as the compound, how does the Hit score read?
Answer: 0.1289

Question: Which Hit score does the source give for `Cn1c(=O)c2c(ncn2CC(O)CO)n(C)c1=O` (stereo not drawn) [DYPHYLLINE] here?
Answer: 0.2241

Question: Which Hit score does the source give for `CCCc1nc(C(C)(C)O)c(C(=O)OCc2oc(=O)oc2C)n1Cc1ccc(-c2ccccc2-c2nnn[nH]2)cc1` [OLMESARTAN MEDOXOMIL] here?
Answer: 0.1098

Question: `CC(=O)[C@@]1(O)CC[C@H]2[C@@H]3C[C@H](C)C4=CC(=O)CC[C@]4(C)[C@H]3CC[C@@]21C` was tested. Which Hit score did it give?
Answer: 0.2069

Question: How did the Hit score turn out when `CCCCCCCCCCCCCCCC[N+](C)(C)C` [CETRIMONIUM] was run?
Answer: 0.2709

Question: Which Hit score does the source give for `NC(=O)C1(N2CCCCC2)CCN(CCCC(=O)c2ccc(F)cc2)CC1` [PIPAMPERONE] here?
Answer: 0.123
